Results are given in words; binding and its absence hold for the method and conditions named. A result given as binding can be weak or reduced; the word gives no strength. Tags and fused reporters may be left off the sequences shown. For some of these results: In cells and extracts the contact can be indirect. One block for each binder: values may come before it.
Experiments:
[1] = target: OsANN4-BD (Oryza sativa L. spp. Japonica); assay: two-hybrid; pGADT7 (AD) and pGBKT7 (BD) constructs cotransformed into AH109 yeast; growth on SD/-Leu/-Trp/-His/-Ade
[2] = target: OsANN4 (S13A)-Cluc (Oryza sativa L. spp. Japonica); assay: split reporter; firefly luciferase complementation imaging (LCI) in tobacco (N. benthamiana) leaves, Cluc and Nluc fusions, 2.5 mM D-luciferin
[3] = target: OsANN4-Cluc (Oryza sativa L. spp. Japonica); assay: as above
[4] = target: OsANN4-GST (Oryza sativa L. spp. Japonica); assay: pull-down; GST or OsANN4-GST incubated with OsCDPK24-His in 25 mM Tris pH 7.2, 150 mM NaCl overnight at 4°C; GST beads; washed with 0.1% NP-40; anti-His blot; both purified

- binding [1]: binds
B1: OsCDPK24-AD (enzyme, UniProt Q53P85 1-513)
chain: MQPDPSGSGGDGNANAKAKLAPPPVTAAGGRPVSVLPHKTANVRDHYRIGKKLGQGQFGTTYLCVDKASGGEFACKSIPKRKLLCREDYEDVWREIQIMHHLSEHPNVVRIRGAYEDALFVHIVMELCAGGELFDRIVAKGHYTERAAAQLIRTIVAVVEGCHSLGVMHRDLKPENFLFASAAEDAPLKATDFGLSMFYKPGDKFSDVVGSPYYVAPEVLQKCYGPESDVWSAGVILYILLCGVPPFWAETEAGIFRQILRGKLDFESEPWPSISDSAKDLVRNMLCRDPTKRLTAHEVLCHPWIVDDAVAPDKPIDSAVLSRLKHFSAMNKLKKMALRVIAESLSEEEIGGLKELFKMIDTDDSGTITFDELKEGLKRVGSELTEHEIQALMEAADIDNSGTIDYGEFIAATLHMNKLEREENLVSAFSFFDKDGSGFITIDELSQACREFGLDDLHLEDMIKDVDQNNDGQIDYSEFTAMMRKGNAGGAGRRTMRNSLQLNLGEILNPSNS

- binding [2]: binds
- binding [3]: binds
B2: OsCDPK24-Nluc (enzyme, UniProt Q53P85 1-513)
chain: B1 chain

- binding [4]: binds
B3: OsCDPK24-His (enzyme, UniProt Q53P85 1-513)
chain: B1 chain

Source: paper PMC8522085
